Laboratory results published in PMC4786873 (Nature Communications, 2016).

Assays:
[1] = general procedure: Fmoc solid-phase peptide synthesis; Sieber amide resin (0.69 mmol/g) for linear peptides 4-7; 2-chlorotrityl polystyrene resin (0.94 mmol/g) for 8; DIC/OxymaPure (DIC/HOBt for Arg; PyBOP/HOBt/DIPEA for amino acid 3 in peptide 8); settings: for final HPLC purity: whole synthesis
[2] = general procedure: Fmoc solid-phase peptide synthesis; 2-chlorotrityl polystyrene resin; DIC/OxymaPure (DIC/HOBt for Arg; PyBOP/HOBt/DIPEA for amino acid 3 in peptide 8); settings: whole synthesis

Row | Substance | final HPLC purity ([1]; HPLC) [% purity] | further results
1 | PEPTIDE1{A.A.A.[Trp(C2-BODIPY)].F.W.[am]}$$$$V2.0 | 96 | 
2 | PEPTIDE1{R.K.K.W.F.W.G}$PEPTIDE1,PEPTIDE1,1:R1-7:R2$$$V2.0 | 98 | crude yield [2]: 72%
3 | PEPTIDE1{R.K.K.W.F.W.[am]}$$$$V2.0 | 95 | 
4 | PEPTIDE1{R.K.K.W.F.[Trp(C2-BODIPY)].[am]}$$$$V2.0 | 90 | 
5 | PEPTIDE1{R.K.K.[Trp(C2-BODIPY)].A.A.[am]}$$$$V2.0 | 99 | 
6 | PEPTIDE1{R.K.K.[Trp(C2-BODIPY)].F.W.G}$PEPTIDE1,PEPTIDE1,1:R1-7:R2$$$V2.0 | 98 | cyclisation yield ([1]; cyclisation step, on protected linear peptide): 87% yield; step yield ([1]; late stage modification step): around 60%; purity (crude or final not stated) ([1]; late stage modification step, HPLC): over 90%
7 | PEPTIDE1{R.K.K.[Trp(C2-BODIPY)].F.W.[am]}$$$$V2.0 | 90 | 
8 | PEPTIDE1{R.K.K.[Trp(C2-BODIPY)].F.[Trp(C2-BODIPY)].[am]}$$$$V2.0 | 91 | 

Strings that start with PEPTIDE1 are HELM notation: dots part the residues, brackets hold end groups and non-standard residues.
